Measured values taken from patent US5739311.

Tests used:
Assay in all cases: enzyme reaction in vitro
[1] = test system: Cla I; settings: PS, all linkages of (-) strand; (+) strand phosphodiester; complete cleavage; 20 units, 0.5 ug DNA, 1 h; purified native protein; protein details: New England Biolabs
[2] = target: T1, Hae III (UniProt O68584); settings: PS, all linkages of (-) strand; (+) strand phosphodiester; complete cleavage; optimum 0 mM NaCl, 2-5 mM MgCl2 (Table 2); purified native protein; protein details: New England Biolabs; only the motif is given
T1 sequence (looked up, limits assumed): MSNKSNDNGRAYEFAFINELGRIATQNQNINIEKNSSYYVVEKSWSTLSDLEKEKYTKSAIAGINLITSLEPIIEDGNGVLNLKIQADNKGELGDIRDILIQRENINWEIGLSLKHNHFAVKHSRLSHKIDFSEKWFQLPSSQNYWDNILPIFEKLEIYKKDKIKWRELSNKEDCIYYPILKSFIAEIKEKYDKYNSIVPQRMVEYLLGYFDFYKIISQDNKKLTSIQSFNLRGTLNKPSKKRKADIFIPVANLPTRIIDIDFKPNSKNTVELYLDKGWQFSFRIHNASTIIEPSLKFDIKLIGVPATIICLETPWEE

[3] = target: T2, Taq alpha I (UniProt P14386); settings: PS, all linkages of (-) strand; (+) strand phosphodiester; complete cleavage; optimum 50 mM NaCl, 1-2 mM MgCl2 (Table 2); purified native protein; protein details: New England Biolabs; only the motif is given
T2 sequence (looked up, limits assumed): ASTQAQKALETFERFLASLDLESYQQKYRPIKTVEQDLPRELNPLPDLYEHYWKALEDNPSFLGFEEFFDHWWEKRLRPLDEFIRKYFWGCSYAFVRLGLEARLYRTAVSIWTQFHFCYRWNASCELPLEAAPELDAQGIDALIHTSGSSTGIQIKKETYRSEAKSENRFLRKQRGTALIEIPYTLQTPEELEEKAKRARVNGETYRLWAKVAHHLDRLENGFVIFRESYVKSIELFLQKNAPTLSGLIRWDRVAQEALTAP

[4] = target: T3, Msp I (UniProt P11405); settings: PS, all linkages of (-) strand; (+) strand phosphodiester; partial cleavage; 20 units, 0.5 ug DNA, 1 h; purified native protein; protein details: New England Biolabs; only the motif is given
T3 sequence (looked up, limits assumed): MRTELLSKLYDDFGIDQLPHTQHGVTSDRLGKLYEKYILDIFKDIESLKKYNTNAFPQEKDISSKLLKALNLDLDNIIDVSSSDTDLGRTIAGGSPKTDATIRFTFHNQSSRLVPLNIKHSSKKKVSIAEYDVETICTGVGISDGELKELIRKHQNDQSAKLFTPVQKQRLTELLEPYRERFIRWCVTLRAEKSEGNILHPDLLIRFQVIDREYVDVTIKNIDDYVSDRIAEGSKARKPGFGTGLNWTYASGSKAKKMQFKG

[5] = test system: BstN I; settings: no significant cleavage of single strand; 50 mM NaCl-type standard conditions of Example II; purified native protein; protein details: New England Biolabs; single-stranded DNA
[6] = target: T4, Mva I (UniProt Q8RNV5); settings: no significant cleavage; 25 mM NaCl, 10 mM MgCl2; purified native protein; protein details: Boehringer Mannheim; single-stranded DNA
T4 sequence (looked up, limits assumed): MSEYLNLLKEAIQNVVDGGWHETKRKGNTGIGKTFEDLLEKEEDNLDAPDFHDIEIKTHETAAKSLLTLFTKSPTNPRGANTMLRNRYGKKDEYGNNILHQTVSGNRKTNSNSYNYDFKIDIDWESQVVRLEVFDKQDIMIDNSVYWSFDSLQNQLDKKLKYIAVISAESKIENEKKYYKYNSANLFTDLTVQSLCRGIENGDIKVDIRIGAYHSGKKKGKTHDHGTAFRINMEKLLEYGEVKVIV

[7] = target: T5, ScrF I (UniProt O34104); settings: complete cleavage; 100 mM NaCl, 5 mM MgCl2; purified native protein; protein details: New England Biolabs; single-stranded DNA
T5 sequence (looked up, limits assumed): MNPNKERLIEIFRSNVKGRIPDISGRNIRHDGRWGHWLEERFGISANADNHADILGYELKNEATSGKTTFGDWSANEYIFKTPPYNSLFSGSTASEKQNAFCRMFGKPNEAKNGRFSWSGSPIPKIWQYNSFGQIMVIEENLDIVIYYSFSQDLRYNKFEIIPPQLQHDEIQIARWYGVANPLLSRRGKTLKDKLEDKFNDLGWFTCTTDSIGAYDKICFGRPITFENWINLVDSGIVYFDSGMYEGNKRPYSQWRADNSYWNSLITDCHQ

[8] = target: HinP I (UniProt Q5I6E6); settings: PS, all linkages of (-) strand; (+) strand phosphodiester; complete cleavage; optimum 50 mM NaCl, 10 mM MgCl2 (Table 2); purified native protein; protein details: New England Biolabs; only the motif is given

## ATCGAT (double strand) [M13 dsDNA, Cla I site]
[1]
  activity on this sequence: active

## GGCC (double strand) [M13 dsDNA, Hae III site]
[2]
  activity on this sequence: active

## TCGA (double strand) [M13 dsDNA, Taq alpha I site]
[3]
  activity on this sequence: active

## CCGG (double strand) [M13 dsDNA, Msp I site]
[4]
  activity on this sequence: active

## GAAGCCCGGACAGCCCAGGGGAGCCCGGCCAGGCGCTCGAGAAGCCCGGACAGCCCAGGGGAGCCCTCGCCTATTGTTAAAGTGTGTCCT [single-stranded multi-site substrate]
[5]
  activity on this sequence: not active
[6]
  activity on this sequence: not active
[7]
  activity on this sequence: active

## GCGC (double strand) [M13 dsDNA, HinP I site]
[8]
  activity on this sequence: active

For some assays here: Negatives hold for the conditions tested. For some assays here: Where a protein sequence is shown, tags need not be part of it. For some assays here: Construct, isoform or probe ends are uncertain for at least one entry.
